Measurements published in patent US20250282733A1, “NOVEL 1,2,3,4,4A,5,6,7,8,9,10,10A-DODECAHYDROBENZO[G]QUINOLIN-6-OL COMPOUNDS AND USES THEREOF” (priority 2022, published 2025).
Some entries share one result that the patent states for a list of compounds.

Test system: non-pre-treated Sprague-Dawley rats
Test: Spontaneous locomotor activity (distance travelled)
Format: in vivo, rat
Conditions: 0.3 μmol/kg SC, recording 180 min
Procedure: Behavioral activity was measured using eight Digiscan activity monitors (RXYZM (16) TAO, Omnitech Electronics, Columbus, OH, USA), connected to an Omnitech Digiscan analyzer and an Apple Macintosh computer equipped with a digital interface board (NB DIO-24, National Instruments, USA). Each activity monitor consisted of a quadratic metal frame (W×L=40 cm×40 cm) equipped with photo beam sensors. During measurements of behavioral activity, a rat was put in a transparent acrylic cage (W×L×H, 40×40×30 cm) which in turn was placed in the activity monitor. Each activity monitor was equipped with three rows of infrared photo beam sensors, each row consisting of 16 sensors. […]
Behavioral data from each activity monitor, representing the position (horizontal center of gravity and vertical activity) of the animal at each time, were recorded at a sampling frequency of 25 Hz and collected using a custom written LABView™ application. The data from each recording session were stored and analyzed with respect to distance traveled. […]
(§1) The animals were placed in the motility meters immediately after administration and locomotor activity was recorded for 180 minutes. […]
as §1

Row | Structure (SMILES) | duration of the effect on locomotor activity
1 | CCCN1CCC[C@@H]2CC3=C(CCC[C@H]3O)C[C@H]21 [Example 4B, (4aR,6R,10aR)-1-propyl-1,2,3,4,4a,5,6,7,8,9,10,10a-dodecahydrobenzo[g]quinolin-6-ol] | at least 180 min
2 | CCCN1CCC[C@@H]2CC3=C(CCCC3=O)C[C@H]21 [Preparation 4A, (4aR,10aR)-1-propyl-1,2,3,4,4a,5,8,9,10,10a-decahydrobenzo[g]quinolin-6 (7H)-one] | at least 180 min
